No constants are given. Whether binding was seen depends on the method and setting. A result given as binding can be weak or reduced; the word gives no strength. Values belong to the binder of their own block, whether it stands above or below them.
Assays:
scCD3εγ [1] = assay: ELISA, biotinylated scCD3εγ, with or without 100 nM VEGF
scCD3εγ [2] = assay: ELISA: plate-bound biotinylated scCD3εγ, His-tagged construct titrated without and with 100 nM soluble VEGF
scCD3εγ [3] = assay: ELISA, biotinylated scCD3εγ on neutravidin plate, with 100 nM VEGF
scCD3εγ [4] = assay: ELISA on scCD3εγ, DARPin titrated
scCD3εγ [5] = assay: ELISA: plate-bound biotinylated scCD3εγ, His-tagged α-CD3 mono-DARPin titrated without and with 100 nM soluble VEGF
scCD3εγ [6] = assay: multi-trace SPR
scCD3εγ [7] = assay: ELISA, biotinylated scCD3εγ on neutravidin plate, with or without 100 nM VEGF
scCD3εγ [8] = assay: ELISA: plate-bound biotinylated scCD3εγ, His-tagged α-CD3 mono-DARPin titrated, no VEGF
scCD3εγ [9] = assay: ELISA: plate-bound biotinylated scCD3εγ, His-tagged construct titrated without VEGF, or 10 nM construct with titrated soluble VEGF
scCD3εγ [10] = assay: ELISA, biotinylated scCD3εγ, construct constant, VEGF titrated
scCD3εγ [11] = assay: ELISA, bio-scCD3εγ, 10 nM construct, VEGF 100 nM to ~0.1 nM
scCD3εγ [12] = assay: HTRF: 20 nM His-tagged construct, 1 nM biotinylated scCD3εγ, Tb-streptavidin donor and d2-labelled antibody acceptor, without and with 100 nM soluble VEGF
scCD3εγ [13] = assay: HTRF, 20 nM construct, 1 nM bio-scCD3εγ, absence against presence of 100 nM VEGF

binding (scCD3εγ [1]): binds
binding (scCD3εγ [2]): binds
binding (scCD3εγ [3]): binds
B1: Switchdrug DARPin 17-B (designed binder)
chain: MRGSHHHHHHGSDLGKKLLQAARAGQLDEVRELLKAGADVNAKDSTGWTPLHLAAPWGHPEIVEVLLKAGADVNAKDFQGWTPLHLAAAAGHLEIVEVLLKAGADVNAKDWLGWTPLHLAASHGHLEIVEVLLKAGADVNAQDKSGKTPADLAARAGHQDIAEVLQKAAGSPTPTPTTPTPTPTTPTPTPTGSDLGKKLLQAARAGQLDEVRELLKAGADVNAKDQYGRTPLHLAAIKGHLEIVEVLLKAGADVNAKDSLGYTPLHLAAVEGPLEIVEVLLKAGADVNAKDAYGQTPLHIAAAWGHLEIVEVLLKAVADVNAQDKSGKTPADLAARAGHQDIAEVLQKAAGSPTPTPTTPTPTPTTPTPTPTGSDLGQKLLEAAWAGQDDEVRELLKAGADVNAKNSRGWTPLHTAAQTGHLEIFEVLLKAGADVNAKNDKRVTPLHLAAALGHLEIVEVLLKAGADVNARDSWGTTPADLAAKYGHQDIAEVLQKAA

binding (scCD3εγ [1]): binds
binding (scCD3εγ [2]): binds
B2: Switchdrug DARPin 18-A (designed binder)
chain: MRGSHHHHHHGSDLGKKLLQAARAGQLDEVRELLKAGADVNAKDQYGRTPLHLAAIKGHLEIVEVLLKAGADVNAKDSLGYTPLHLAAVEGPLEIVEVLLKAGADVNAKDAYGQTPLHIAAAWGHLEIVEVLLKAVADVNAQDKSGKTPADLAARAGHQDIAEVLQKAAGSPTPTPTTPTPTPTTPTPTPTGSDLGQKLLEAAWAGQDDEVRELLKAGADVNAKNSRGWTPLHTAAQTGHLEIFEVLLKAGADVNAKNDKRVTPLHLAAALGHLEIVEVLLKAGADVNARDSWGTTPADLAAKYGHQDIAEVLQKAAGSPTPTPTTPTPTPTTPTPTPTGSDLDKKLLEAARAGQDDEVRILLKAGADVNAKDSTGWTPLHLAAPWGHPEIVEVLLKAGADVNAKDFQGWTPLHLAAAAGHLEIVEVLLKAGADVNAKDVYGWTPLHIAAASGHLEIVEVLLKAGADVNAKDWLGWTPLHLAASHGHLEIVEVLLKAGADVNAQDKSGKTPADLAARAGHQDIAEVLQKAA

binding (scCD3εγ [4]): binds
binding (scCD3εγ [5]): binds
binding (scCD3εγ [6]): binds
binding (scCD3εγ [7]): binds
binding (scCD3εγ [8]): binds
B3: CD3-specific binding domain (SEQ ID NO: 3) (designed binder)
chain: DLGQKLLEAAWAGQDDEVRELLKAGADVNAKNSRGWTPLHTAAQTGHLEIFEVLLKAGADVNAKNDKRVTPLHLAAALGHLEIVEVLLKAGADVNARDSWGTTPADLAAKYGHQDIAEVLQKAA
modifications: biotinylated when used as immobilized SPR ligand (site not stated)

binding (scCD3εγ [1]): binds
binding (scCD3εγ [9]): binds
binding (scCD3εγ [10]): binds
binding (scCD3εγ [2]): binds
binding (scCD3εγ [11]): binds
B4: Switchdrug DARPin 17-1 (designed binder)
chain: MRGSHHHHHHGSDLGQKLLEAAWAGQDDEVRELLKAGADVNAKNSRGWTPLHTAAQTGHLEIFEVLLKAGADVNAKNDKRVTPLHLAAALGHLEIVEVLLKAGADVNARDSWGTTPADLAAKYGHQDIAEVLQKAAGSPTPTPTTPTPTPTTPTPTPTGSDLGKKLLQAARAGQLDEVRELLKAGADVNAKDSTGWTPLHLAAPWGHPEIVEVLLKAGADVNAKDFQGWTPLHLAAAAGHLEIVEVLLKAGADVNAKDWLGWTPLHLAASHGHLEIVEVLLKAGADVNAQDKSGKTPADLAARAGHQDIAEVLQKAA

B5: Switchdrug DARPin 15-3 (designed binder)
chain: MRGSHHHHHHGSDLDKKLLEAARAGQDDEVRILLKAGADVNAKDSTGWTPLHLAAPWGHPEIVEVLLKAGADVNAKDFQGWTPLHLAAAAGHLEIVEVLLKAGADVNAKDWLGWTPLHLAASHGHLEIVEVLLKAGADVNAQDKSGKTPADLAARAGHQDIAEVLQKAAGSPTPTPTTPTPTPTTPTPTPTGSDLGKKLLEAARAGQDDEVRELLKAGADVNAKDKDGYTPLHLAAREGHLEIVEVLLKAGADVNAKDKDGYTPLHLAAREGHLEIVEVLLKAGADVNAQDKSGKTPADLAADAGHEDIAEVLQKAAGSPTPTPTTPTPTPTTPTPTPTGSDLGQKLLEAAWAGQDDEVRELLKAGADVNAKNSRGWTPLHTAAQTGHLEIFEVLLKAGADVNAKNDKRVTPLHLAAALGHLEIVEVLLKAGADVNARDSWGTTPADLAAKYGHQDIAEVLQKAA
binding (scCD3εγ [1]): binds
binding (scCD3εγ [12]): binds
binding (scCD3εγ [2]): binds
binding (scCD3εγ [13]): binds

binding (scCD3εγ [1]): binds
binding (scCD3εγ [2]): binds
B6: Switchdrug DARPin 18-B (designed binder)
chain: MRGSHHHHHHGSDLDKKLLEAARAGQDDEVRILLKAGADVNAKDSTGWTPLHLAAPWGHPEIVEVLLKAGADVNAKDFQGWTPLHLAAAAGHLEIVEVLLKAGADVNAKDVYGWTPLHIAAASGHLEIVEVLLKAGADVNAKDWLGWTPLHLAASHGHLEIVEVLLKAGADVNAQDKSGKTPADLAARAGHQDIAEVLQKAAGSPTPTPTTPTPTPTTPTPTPTGSDLGKKLLQAARAGQLDEVRELLKAGADVNAKDQYGRTPLHLAAIKGHLEIVEVLLKAGADVNAKDSLGYTPLHLAAVEGPLEIVEVLLKAGADVNAKDAYGQTPLHIAAAWGHLEIVEVLLKAVADVNAQDKSGKTPADLAARAGHQDIAEVLQKAAGSPTPTPTTPTPTPTTPTPTPTGSDLGQKLLEAAWAGQDDEVRELLKAGADVNAKNSRGWTPLHTAAQTGHLEIFEVLLKAGADVNAKNDKRVTPLHLAAALGHLEIVEVLLKAGADVNARDSWGTTPADLAAKYGHQDIAEVLQKAA

binding (scCD3εγ [1]): binds
binding (scCD3εγ [2]): binds
B7: Switchdrug DARPin 17-A (designed binder)
chain: MRGSHHHHHHGSDLGKKLLQAARAGQLDEVRELLKAGADVNAKDQYGRTPLHLAAIKGHLEIVEVLLKAGADVNAKDSLGYTPLHLAAVEGPLEIVEVLLKAGADVNAKDAYGQTPLHIAAAWGHLEIVEVLLKAVADVNAQDKSGKTPADLAARAGHQDIAEVLQKAAGSPTPTPTTPTPTPTTPTPTPTGSDLGQKLLEAAWAGQDDEVRELLKAGADVNAKNSRGWTPLHTAAQTGHLEIFEVLLKAGADVNAKNDKRVTPLHLAAALGHLEIVEVLLKAGADVNARDSWGTTPADLAAKYGHQDIAEVLQKAAGSPTPTPTTPTPTPTTPTPTPTGSDLGKKLLQAARAGQLDEVRELLKAGADVNAKDSTGWTPLHLAAPWGHPEIVEVLLKAGADVNAKDFQGWTPLHLAAAAGHLEIVEVLLKAGADVNAKDWLGWTPLHLAASHGHLEIVEVLLKAGADVNAQDKSGKTPADLAARAGHQDIAEVLQKAA

From patent US20250042957A1
